From PMC10273176 come the findings set out here.

The subject of this series is thrombin. The series can be described thus: EMSA. To be noted: DNA-NPs folded in 1x TAE, 12 mM MgCl2, incubated with thrombin at 37 C for 1.5 h, agarose gel with ethidium bromide, 100 V, binding buffer not otherwise stated, commercial protein, folded or branched DNA. Background: A gel shift assay detects complexes by their altered migration in electrophoresis.

As for “GGACGCTATCCAGTCTAAACATTTTACTATTACCCCCTCTGGCAAAACTTCTTTTGCAAAAGCCTCTCGCTATTTTGGTTTTTATCGTCGTCTGGTAAACGAGGGTTATGATAGTGTTGCTCTTACTATGCCTCGTAATTCCTTTTGGCGTTATGTATCTGCATTAGTTGAATGTGGTATTCCTAAATCTCAACTGATGAATCTTTCTACCTGTAATAATGTTGTTCCGTTAGTTCGTTTTATTAACGTAGATTTAGTCCGTGGTAGGGCAGGTTGGGGTGACTTTCTTCCCAACGTCCTGACTGGTATAATGAGCCAGTTCTTAAAATCGCATAAGGTAATTCACAATGATTAAAGTTGAAATTAAACCATCTCAAGCCCAATTTACTACTCGTTCTGGTGTTTCTCGTCAGGGCAAGCCTTATTCACTGAATGAGCAGCTTTGTTACGTTGATTTGGGTAATGAATATCCGGTTCTTGTCAAGATTACTCTTGATGAAGGTCAGCCAGCCTATGCGCCTGGTCTGTACACCGTTCATCTGTCCTCTTTC”, the binding result (2x molar excess thrombin) was “binds”. Turning to “GGACGCTATCCAGTCTAAACATTTTACTATTACCCCCTCTGGCAAAACTTCTTTTGCAAAAGCCTCTCGCTATTTTGGTTTTTATCGTCGTCTGGTAAACGAGGGTTATGATAGTGTTGCTCTTACTATGCCTCGTAATTCCTTTTGGCGTTATGTATCTGCATTAGTTGAATGTGGTATTCCTAAATCTCAACTGATGAATCTTTCTACCTGTAATAATGTTGTTCCGTTAGTTCGTTTTATTAACGTAGATTTTTCGATGGTTGGTGTGGTTGGTGGAGCGCCGTCCGGATCGTTTTCTTCCCAACGTCCTGACTGGTATAATGAGCCAGTTCTTAATTCGAAGGTTGGTGTGGTTGGCCGGACGCGCTGCCATTCGTTAATCGCATAAGGTAATTCACAATGATTAAAGTTGAAATTAAATTCGTTGGTTGGTGTGGTTGGCCGACGCCCGTGACGAACGTTCCATCTCAAGCCCAATTTACTACTCGTTCTGGTGTTTCTCGTCAGGGCAAGCCTTATTCACTGAATGAGCAGCTTTGTTACGTTGATTTGGGTAATGAATATCCGGTTCTTGTCAAGATTACTCTTGATGAAGGTCAGCCAGCCTATGCGCCTGGTCTGTACACCGTTCATCTGTCCTCTTTC”, the binding result (two- or threefold thrombin excess) is “binds”.
